Measurements as given in PubChem BioAssay AID485314 (National Center for Advancing Translational Sciences (NCATS), 2010).
Out of some 340,000 compounds screened, about 4,500 (1.3%) were called active. Inconclusive means that the source gave no clear call. Such entries were picked first, then a sample of the others. The call rests on the fitted dose curve; in most records, active means well fitted inhibition curve with a large enough effect; inconclusive means small, poorly fitted or top-dose-only effect, or another doubt; inactive means no such curve, though single readings can be large or run the other way. Potencies beside an inconclusive call are fits to weak or partial responses and may not hold up.

The compounds below were run against DNA polymerase beta (Homo sapiens) (UniProt P06746) (assay: qHTS Assay for Inhibitors of DNA Polymerase Beta). Settings: Pol beta primer extension/strand displacement, fluorescence kinetic; activity change, negative = inhibition: at 114 µM (top of the series).
How it was run: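 Curves were derived by four-parameter Hill fits of normalized qHTS data. The kinetic fluorescent primer-extension read was taken at 0 and 10 min after 50 nM substrate, following a 15 min room-temperature preincubation of 10 nM enzyme with compounds.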
On the % scale 0 is the no-effect control and ±100 the full control effect; potency means the concentration at half of the fitted maximal effect.

SMILES	Potency	activity change, negative = inhibition
Nn1cnnc1N/N=C\c1ccc(-c2ccccc2[N+](=O)[O-])o1	inactive	
Cc1nc2c(cc1C(=O)N/N=C/c1ccc(O)c(O)c1)c(=O)n(C)c(=O)n2C	active: 44.7 µM	
CC(=O)Nc1ccc(NC(=O)COc2ccc([N+](=O)[O-])cc2)cc1	inconclusive: 39.8 µM [inhibitor, single point]	
CCCCCCCCCCOC(=O)Cn1c(COc2ccc(Cl)cc2)[n+](C)c2ccccc21	inconclusive: 100 µM [inhibitor, single point]	
Cc1ccccc1C(=O)OCc1cc(=O)n2nc(-c3cccs3)sc2n1	active: 31.6 µM	
CCOC(=O)C(=NC1CCS(=O)(=O)C1)NNc1ccc(Br)cc1 (stereo not given)	inactive	
N#Cc1cc[n+](CC(=O)c2ccc(NC(=O)c3ccccc3)cc2)cc1	inconclusive: 89.1 µM [inhibitor, single point]	
Cn1nccc1NC(=O)CC(CC(=O)O)c1ccccc1 (stereo not given)	inconclusive: 4.47 µM [inhibitor, single point]	
Cc1cccc(C(=O)NCCC(=O)Nc2nc(C)c(Cc3ccc4c(c3)OCO4)s2)c1	inconclusive: 89.1 µM [inhibitor, single point]	
CC(=O)N1CCCc2cc(S(=O)(=O)CCC(=O)N3CCN(c4ccccc4)CC3)ccc21	inconclusive: 20 µM [inhibitor, partial curve, poor fit]	
Nc1nc(NCc2ccccc2)nc(NCCO)c1[N+](=O)[O-]	inconclusive: 0.158 µM [inhibitor, full curve, poor fit]	
Cc1cc2oc(C(=O)Nc3nonc3C)c(C)c2cc1Cl	inconclusive: 39.8 µM [inhibitor, single point]	
O=C(Nc1cc(F)ccc1F)N1CCC(CN2CCCC2)CC1	inactive	
CN(C)[C@@H]1C(=O)C(C(N)=O)=C(O)[C@@]2(O)C(=O)C3=C(O)c4c(O)ccc(Cl)c4[C@@H](O)[C@H]3C[C@@H]12	active: 8.91 µM	
NS(=O)(=O)c1ccc(CCNC(=O)CNC(=O)COc2ccccc2)cc1	inconclusive: 39.8 µM [inhibitor, single point]	
COc1ccc(-c2cc(C(F)(F)F)nc(SCC(=O)NCCc3ccccc3)n2)cc1OC	inconclusive: 79.4 µM [inhibitor, single point]	
COc1ccc(-c2nc3ncccc3o2)cc1NC(=O)c1ccco1	inconclusive: 4.47 µM [inhibitor, full curve, poor fit]	
Cn1cccc1CC(=O)N/N=C/c1ccco1	inconclusive: 25.1 µM [inhibitor, single point]	
COc1ccc(NC(=O)CSc2nc3ccccc3n2Cc2cccc(OC)c2)cc1	inconclusive: 89.1 µM [inhibitor, single point]	
Cc1cc(C)cc(-n2nc(C)cc2N)c1	inconclusive: 100 µM [inhibitor, partial curve, poor fit]	
CC(=O)Nc1ccc(S(=O)(=O)Nc2nc3ccccc3nc2Nc2ccc(S(N)(=O)=O)cc2)cc1	inactive	
COc1ccc(NC(=O)c2cc(-c3ccc(OC)c(OC)c3)on2)cc1OC	inactive	
Cc1ccc2cc3c(N)c(C(=O)Nc4c(C)[nH]c(=O)[nH]c4=O)sc3nc2c1	inconclusive: 20 µM [inhibitor, partial curve]	
O=C(NCc1ccccc1)C1CCN(S(=O)(=O)c2cc([N+](=O)[O-])ccc2Cl)CC1	inactive	

SMILES	Potency	activity change, negative = inhibition
Cc1cc(S(=O)(=O)Nc2ccc(-c3ccc(N4CCCCCC4)nn3)cc2)c(C)cc1Cl	inconclusive: 89.1 µM [inhibitor, single point]	
CCOC(=O)c1sc(Nc2nc3ccc(OC)cc3s2)cc1C	inconclusive: 39.8 µM [inhibitor, partial curve]	
O=C(O)CCC(=O)N(Cc1ccco1)c1nc(-c2ccccc2)cs1	inconclusive: 89.1 µM [inhibitor, single point]	
O=C(Nc1ccc(-c2cn3cccnc3n2)cc1)c1cc(Br)ccc1Cl	inconclusive: 14.1 µM [inhibitor, partial curve]	
CCc1ccccc1NC(=O)c1cnc2sc(N3CCCC3)nn2c1=O	inactive	
O=C(O)CC(=O)Nc1cc(Cl)ccc1O	inconclusive: 39.8 µM [inhibitor, single point]	
CC1=C(C)C(=O)OC(C(C)C2CCC3C4CC=C5CC(OC6OC(COC7OC(CO)C(O)C(O)C7O)C(O)C(O)C6O)CC(O)C5(C)C4CCC23C)C1 (stereo not given)	inactive	
O=C(Nc1cccc(Cl)c1)c1cc2c(=O)[nH]c3ccccc3c2s1	inactive	
O=C(CCN1C(=O)/C(=C/c2cccs2)SC1=S)Nc1ccc(C(=O)O)cc1	active: 31.6 µM	
CC(C)c1ccccc1NC(=O)COC(=O)/C=C/c1cccc([N+](=O)[O-])c1	inconclusive: 79.4 µM [inhibitor, partial curve]	
Cc1cn2c(=O)cc(COC(=O)COc3ccccc3C)nc2s1	inconclusive: 89.1 µM [inhibitor, single point]	
CCN(Cc1ccccc1)C(=O)Cn1c(=O)n(-c2ccc(C)c(C)c2)c(=O)c2c(C)c(C)sc21	inactive	
CC(C)(C)NS(=O)(=O)c1cc(C(=O)Nc2sccc2C#N)ccc1Cl	inconclusive: 100 µM [inhibitor, single point]	
Cc1ccc(-c2nc(C)c(CCNS(=O)(=O)c3ccc(F)c(C(F)(F)F)c3)s2)cc1	inactive	
O=C(Nc1cccc(C(F)(F)F)c1)c1cc2ccc3cccnc3c2[nH]1	inactive	
CC(C)CCNC(=O)CN(C(=O)CCC(=O)Nc1ccccn1)c1ccc2c(c1)OCO2	inconclusive: 0.1 µM [inhibitor, full curve, poor fit]	
COc1ccc(CCNC(=O)CSc2nnc(-c3ccco3)c(-c3ccco3)n2)cc1OC	inconclusive: 89.1 µM [inhibitor, single point]	
CC1CCN(c2ccccc2NC(=O)c2ccc(Br)o2)CC1	inconclusive: 0.794 µM [inhibitor, full curve, poor fit]	
CCN(CC)c1ccc(NS(=O)(=O)c2cc3[nH]c(=O)c(=O)[nH]c3cc2C)c(C)c1	active: 50.1 µM	
CC(C)c1ccc(OC(=O)c2cc(-c3ccccc3)on2)cc1	inactive	
CCOc1ccc(-n2nc3ccc(NC(=O)COc4ccc(OC)cc4)cc3n2)cc1		inconclusive: -39.2% [inhibitor]
CCN(CC)c1ccc(NC(=O)CSc2nc(-c3cccs3)cc(C(F)(F)F)n2)cc1	inconclusive: 20 µM [inhibitor, single point]	
Cc1ccc(/C=N/NC(=O)Cc2ccc(Cl)cc2)c(O)c1	inconclusive: 3.98 µM [inhibitor, full curve, poor fit]	
O=C(NC(=S)Nc1cccc(S(=O)(=O)NC2=NCCC2)c1)c1cc(-c2ccco2)nc2ccccc12	active: 39.8 µM	

By substructure, the compounds so far containing four or more nitrogen atoms
SMILES	Potency	activity change, negative = inhibition
Nn1cnnc1N/N=C\c1ccc(-c2ccccc2[N+](=O)[O-])o1	inactive	
Cc1nc2c(cc1C(=O)N/N=C/c1ccc(O)c(O)c1)c(=O)n(C)c(=O)n2C	active: 44.7 µM	
Nc1nc(NCc2ccccc2)nc(NCCO)c1[N+](=O)[O-]	inconclusive: 0.158 µM [inhibitor, full curve, poor fit]	
CC(=O)Nc1ccc(S(=O)(=O)Nc2nc3ccccc3nc2Nc2ccc(S(N)(=O)=O)cc2)cc1	inactive	
Cc1ccc2cc3c(N)c(C(=O)Nc4c(C)[nH]c(=O)[nH]c4=O)sc3nc2c1	inconclusive: 20 µM [inhibitor, partial curve]	
Cc1cc(S(=O)(=O)Nc2ccc(-c3ccc(N4CCCCCC4)nn3)cc2)c(C)cc1Cl	inconclusive: 89.1 µM [inhibitor, single point]	
O=C(Nc1ccc(-c2cn3cccnc3n2)cc1)c1cc(Br)ccc1Cl	inconclusive: 14.1 µM [inhibitor, partial curve]	
CCc1ccccc1NC(=O)c1cnc2sc(N3CCCC3)nn2c1=O	inactive	
CC(C)CCNC(=O)CN(C(=O)CCC(=O)Nc1ccccn1)c1ccc2c(c1)OCO2	inconclusive: 0.1 µM [inhibitor, full curve, poor fit]	
COc1ccc(CCNC(=O)CSc2nnc(-c3ccco3)c(-c3ccco3)n2)cc1OC	inconclusive: 89.1 µM [inhibitor, single point]	
CCN(CC)c1ccc(NS(=O)(=O)c2cc3[nH]c(=O)c(=O)[nH]c3cc2C)c(C)c1	active: 50.1 µM	
CCOc1ccc(-n2nc3ccc(NC(=O)COc4ccc(OC)cc4)cc3n2)cc1		inconclusive: -39.2% [inhibitor]
CCN(CC)c1ccc(NC(=O)CSc2nc(-c3cccs3)cc(C(F)(F)F)n2)cc1	inconclusive: 20 µM [inhibitor, single point]	
O=C(NC(=S)Nc1cccc(S(=O)(=O)NC2=NCCC2)c1)c1cc(-c2ccco2)nc2ccccc12	active: 39.8 µM	

Quoted at random: 2 compounds from above, in no set order.
SMILES	Potency	activity change, negative = inhibition
O=C(NC(=S)Nc1cccc(S(=O)(=O)NC2=NCCC2)c1)c1cc(-c2ccco2)nc2ccccc12	active: 39.8 µM	
Cc1ccc2cc3c(N)c(C(=O)Nc4c(C)[nH]c(=O)[nH]c4=O)sc3nc2c1	inconclusive: 20 µM [inhibitor, partial curve]	

The list continues:

SMILES	Potency	activity change, negative = inhibition
CCCC1Nc2ccc(C(=O)O)cc2C2C=CCC12 (stereo not given)	active: 35.5 µM	
O=C(Cc1ccc(-n2cccc2)cc1)NCc1cccs1	active: 44.7 µM	
N#Cc1c(-c2ccccc2)nc(SCc2cccc(Cl)c2)[nH]c1=O	inconclusive: 50.1 µM [inhibitor, partial curve, poor fit]	
Cc1sc2nc(COC(=O)CNC(=O)c3ccc(C(C)(C)C)cc3)[nH]c(=O)c2c1C	inactive	
N=C1/C(=C\c2coc3ccc(O)cc3c2=O)C(=O)N=C2SC=CN12	active: 3.98 µM	
Cc1ccc(C)c(Cn2c(C3CC(=O)N(c4ccccc4C)C3)nc3ccccc32)c1 (stereo not given)	inactive	
Cc1ccccc1NC(=O)c1ccccc1	inconclusive: 0.501 µM [inhibitor, full curve, poor fit]	
Cc1ccc(SCc2cc(=O)c3c(=O)n(-c4ccccc4)[nH]c3[nH]2)cc1	active: 35.5 µM	
CCN(CC)c1ccc(/C=N/Nc2nc(C)cc(=O)[nH]2)c(O)c1	inconclusive: 100 µM [inhibitor, single point]	
O=C(NCCc1ccccc1Cl)c1ccc2c(c1)nc1n2CCCCC1	inactive	
COc1ccc(-c2nnc(SCC(=O)Nc3ccc(C(=O)O)cc3)n2-c2ccc(Cl)cc2)cc1	inconclusive: 89.1 µM [inhibitor, single point]	
COc1ccc(C(=O)NCC(c2ccc(N(C)C)cc2)N2CCc3ccccc32)c(OC)c1 (stereo not given)	inactive	
Cc1cccc(C(=O)NCc2ccco2)c1	active: 56.2 µM	
CC(/C=C1\SC(=S)N(CCCC(=O)Nc2ccc(C(=O)O)c(O)c2)C1=O)=C\c1ccccc1	inconclusive: 39.8 µM [inhibitor, partial curve]	
COc1ccc(-c2nc3c(C#N)c[nH]n3c2NC2CCCC2)c(OC)c1	inactive	
CC1(C)CC(=O)c2c(O)cc(OCC(=O)NCCc3ccc(S(N)(=O)=O)cc3)cc2O1	inconclusive: 1.58 µM [inhibitor, full curve, poor fit]	
CC1(C)c2[nH]c3ccccc3c2C[C@H]2C(=O)N(CCCCCO)CC(=O)N21	inconclusive: 100 µM [inhibitor, single point]	
CCOCCc1nn2c(=O)cc(COC(=O)C3CCCCC3)nc2s1	inactive	
Cc1cc(C)nc(SSc2nc(C)cc(C)n2)n1	inconclusive: 39.8 µM [inhibitor, single point]	
COc1ccc2nc(C)cc(N/N=C/c3cccc(OC)c3O)c2c1	inconclusive: 15.8 µM [inhibitor, full curve, poor fit]	
CCN(CC)CCCNC(=O)c1nn(C)c2c1CS(=O)(=O)c1ccccc1-2	inactive	
COc1ccc(NC(=O)CN2c3cccc4cccc(c34)S2(=O)=O)c(OC)c1	inconclusive: 0.112 µM [inhibitor, full curve, poor fit]	
